Patent US9427458B2, “Methods for inhibiting cancer cell proliferation” (Consejo Nacional de Investigaciones Cientificas y Tecnicas, …, priority 2010, dated 2016)
For at least one compound, name, drawing or mass did not settle the structure.

Legend:
ErbB-2 [1] = experiment: ErbB-2 cellular localization (subcellular fractionation/immunoblot, confocal microscopy) in C4HD cells; type: cell-based, mouse; conditions: C4HD cells pretreated with inhibitor before MPA
Description: (§1) Lysates were prepared from cells subjected to the different treatments and proteins were subjected to SDS-PAGE as previously described (21). Membranes were immunoblotted with the antibodies detailed in each experiment. When phospho(p)-protein antibodies were used, filters were reprobed with total protein antibodies. Signal intensities of pErbB-2, pStat3, pSrc, pPR, pJak1, and pJak2 bands were analyzed by densitometry and normalized to total protein bands. Similarly, signal intensities of PR, cyclin D1, Stat3, and ErbB-2 bands were normalized to actin or β tubulin bands. […]
(§2) Cells grown on glass coverslips were fixed and permeabilized in ice-cold methanol and were then blocked with PBS 1% BSA. ErbB-2 was localized using either a rabbit polyclonal (C-18) or a mouse monoclonal (F-11) ErbB-2 antibody (Santa Cruz Biotechnology) and Stat3 was detected using a mouse monoclonal antibody (124H6, Cell Signaling), followed by incubation with a goat anti-rabbit IgG-Alexa 488 (Molecular Probes, Eugene, Oreg.) secondary antibody for ErbB-2 (C-18) and with a rhodamine conjugated goat anti-mouse secondary antibody (Jackson ImmunoResearch Laboratories, West Grove, Pa.) for both ErbB2 (F-11) and Stat3. […] When cells were transfected with hErbB-2ΔNLS, green fluorescent protein from this expression vector was visualized by direct fluorescence imaging. […]

ErbB-2 [2] = experiment: ErbB-2 cellular localization (subcellular fractionation/immunoblot, confocal microscopy) in T47D cells; type: cell-based, human; conditions: T47D cells pretreated with inhibitor before MPA
Description: as §1, §2

ErbB-2 [3] = experiment: ErbB-2 tyrosine phosphorylation by Western blot in C4HD cells; type: cell-based, mouse; conditions: C4HD cells preincubated with inhibitor or transfected with siRNA before MPA
Description: (§3) Primary cultures of epithelial cells from C4HD tumors were performed as described (2). T47D cells were obtained from American Type Culture Collection and T47D-Y cells were a generous gift from Dr. K. Horwitz (Denver, Colo.). To evaluate the effects of the pharmacological inhibitors on MPA-induced proteins phosphorylation or cyclin D1 expression, cells were preincubated for 90 min with RU486, PP2, Tyrphostin AG825 or Jak inhibitor I before addition of MPA. Cell proliferation was evaluated by [3H]-thymidine incorporation assay and cell cycle distribution was analyzed by flow cytometry, as described (22).
(§4) Lysates were prepared from cells subjected to the different treatments and proteins were subjected to SDS-PAGE as previously described (21). Membranes were immunoblotted with the antibodies detailed in each experiment. When phospho(p)-protein antibodies were used, filters were reprobed with total protein antibodies. Signal intensities of pErbB-2, pStat3, pSrc, pPR, pJak1, and pJak2 bands were analyzed by densitometry and normalized to total protein bands. Similarly, signal intensities of PR, cyclin D1, Stat3, and ErbB-2 bands were normalized to actin or β tubulin bands. […] The NEPER Nuclear and Cytoplasmic Extraction Reagents technique (Pierce Biotechnology) was performed as per manufacturer's instructions. […]

cyclin D1 promoter [4] = experiment: Human cyclin D1 promoter luciferase reporter in C4HD cells; type: cell-based, mouse; conditions: pretreatment or cotransfection, MPA 24 h
Description: (§5) The luciferase reporter plasmid downstream the cyclin D1 human promoter region (−1745 cyclin D1-luc), and constructs truncated at positions −963, −261, −141, were kindly provided by Dr. R. Pestell (Northwestern University Medical School, Chicago, Ill.). These constructs were generated by truncation of the 1745-bp length promoter in order to sequentially exclude 5′ regions of the promoter. The −963 cyclin D1-luc construct excludes one GAS site (−984), the −261 cyclin D1-luc excludes three GAS sites (−984, −568 and −475) and the −141 cyclin D1-luc excludes four GAS sites (−984, −568, −475 and −239). The empty vector pA3 Luc was also provided by Dr. R. Pestell. The luciferase reporter plasmid containing four copies of the m67 high-affinity binding site (p4×m67-tk-luc) and the pTATA-tk-Luc reporter lacking the m67 insertion were a gift from Dr J. Darnell (The Rockefeller University, New York, N.Y.). The Renilla luciferase expression plasmid RLCMV was obtained from Promega (Madison, Wis.). […] Triplicate samples were analyzed for each datum point. Differences between experimental groups were analyzed by ANOVA followed by Tukey test between groups.

Stat3 [5] = experiment: Stat3 phosphorylation and nuclear translocation in C4HD cells; type: cell-based, mouse; conditions: C4HD cells pretreated with inhibitor before MPA
Description: as §1, §2

cyclin D1 = experiment: Cyclin D1 protein levels by Western blot in C4HD cells; type: cell-based, mouse; conditions: C4HD cells preincubated or transfected, then MPA for 48 h
Description: as §3, §4

cyclin D1 promoter [6] = experiment: Human cyclin D1 promoter luciferase reporter in T47D cells; type: cell-based; conditions: pretreatment or cotransfection, MPA 24 h
Description: as §5

Stat3 [7] = experiment: Stat3 phosphorylation and nuclear translocation in T47D cells; type: cell-based, human; conditions: T47D cells pretreated with inhibitor before MPA
Description: as §1, §2

Compound: CC#C[C@]1(O)CC[C@H]2[C@@H]3CCC4=CC(=O)CCC4=C3[C@@H](c3ccc(N(C)C)cc3)C[C@@]21C [RU486]
- MPA-induced ErbB-2 nuclear translocation (ErbB-2 [1]): abrogation
- MPA-induced ErbB-2 nuclear translocation (ErbB-2 [2]): abrogation
- MPA-induced ErbB-2 phosphorylation (ErbB-2 [3]): inhibited
- MPA-induced cyclin D1 promoter activation (cyclin D1 promoter [4]): completely abrogated
- MPA-induced Stat3 nuclear migration (Stat3 [5]): abrogation
- MPA-induced cyclin D1 protein levels (cyclin D1): abrogated
- MPA-induced cyclin D1 promoter activation (cyclin D1 promoter [6]): completely abrogated
- MPA-induced Stat3 nuclear migration (Stat3 [7]): abrogation
